Among the data in PMC4853472, “Trapping mammalian protein complexes in viral particles” (Nature Communications, 2016) are binding values, retold here.

Chains of the proteins cited; added tags and fusions are not shown.
UniProt P23297: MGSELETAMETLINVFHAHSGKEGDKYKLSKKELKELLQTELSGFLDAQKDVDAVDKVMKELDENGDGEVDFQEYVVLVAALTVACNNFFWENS

In test [1] the target is T1, S100B (UniProt P04271).
T1 sequence: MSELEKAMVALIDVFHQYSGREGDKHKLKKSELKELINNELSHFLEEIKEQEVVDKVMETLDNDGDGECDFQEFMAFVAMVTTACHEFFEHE

For test [2], the target named is S100A1 (UniProt P23297).

Results are given in words; binding and its absence hold for the method and conditions named. Some entries that bind do so weakly or less than the wild type.

As to S100A1 (from UniProt P23297 1-94), the binding entry in test [1] is given as “binds”.

B1: S100B (protein, UniProt P04271 1-92)
chain: MSELEKAMVALIDVFHQYSGREGDKHKLKKSELKELINNELSHFLEEIKEQEVVDKVMETLDNDGDGECDFQEFMAFVAMVTTACHEFFEHE
In the case of B1, the binding result in test [2] is “binds”.
